From article PMC7069986
These are yes or no findings as the source states them, for the method shown. Binding seen in cells or lysates may run through a third protein. For some of these results: Binding calls can cover weak binding; strength is not graded here. For some of these results: Tags and fused reporters may be left off the sequences shown. One block for each substance: values may come before it.

What was measured:
[1] = target: T1, SRK2D/SnRK2.2-mCherry (Arabidopsis thaliana) (UniProt Q39192); experiment: co-IP; total proteins from transgenic Arabidopsis co-expressing RAF18-GFP and mCherry fusions, untreated or 0.8 M mannitol for 10 min; precipitated with anti-mCherry (Anti-RFP mAb-Magnetic Beads); blots with anti-GFP or anti-mCherry
T1 sequence: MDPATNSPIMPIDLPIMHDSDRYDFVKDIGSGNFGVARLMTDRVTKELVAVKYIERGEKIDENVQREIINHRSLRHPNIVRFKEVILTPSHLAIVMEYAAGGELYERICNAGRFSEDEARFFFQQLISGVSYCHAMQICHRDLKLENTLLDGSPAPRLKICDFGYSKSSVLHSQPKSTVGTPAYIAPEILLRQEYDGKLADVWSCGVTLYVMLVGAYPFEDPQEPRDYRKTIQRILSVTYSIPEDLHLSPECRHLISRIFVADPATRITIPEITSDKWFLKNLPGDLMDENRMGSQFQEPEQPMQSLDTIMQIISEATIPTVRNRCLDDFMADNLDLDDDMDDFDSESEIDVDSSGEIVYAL

[2] = target: T2, SRK2G-mCherry (Arabidopsis thaliana) (UniProt P43292); experiment: as above
T2 sequence: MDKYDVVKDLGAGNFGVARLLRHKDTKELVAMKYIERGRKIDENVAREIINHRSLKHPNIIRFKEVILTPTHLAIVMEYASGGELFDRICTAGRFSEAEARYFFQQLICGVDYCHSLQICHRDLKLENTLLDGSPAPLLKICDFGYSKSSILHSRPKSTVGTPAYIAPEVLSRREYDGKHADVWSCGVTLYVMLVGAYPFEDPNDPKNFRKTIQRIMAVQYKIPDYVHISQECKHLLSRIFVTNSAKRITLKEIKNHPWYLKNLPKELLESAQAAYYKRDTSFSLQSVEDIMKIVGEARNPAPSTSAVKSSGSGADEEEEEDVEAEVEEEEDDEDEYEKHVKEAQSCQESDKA

[3] = target: T3, SRK2A-mCherry (Arabidopsis thaliana) (UniProt P43291); experiment: as above
T3 sequence: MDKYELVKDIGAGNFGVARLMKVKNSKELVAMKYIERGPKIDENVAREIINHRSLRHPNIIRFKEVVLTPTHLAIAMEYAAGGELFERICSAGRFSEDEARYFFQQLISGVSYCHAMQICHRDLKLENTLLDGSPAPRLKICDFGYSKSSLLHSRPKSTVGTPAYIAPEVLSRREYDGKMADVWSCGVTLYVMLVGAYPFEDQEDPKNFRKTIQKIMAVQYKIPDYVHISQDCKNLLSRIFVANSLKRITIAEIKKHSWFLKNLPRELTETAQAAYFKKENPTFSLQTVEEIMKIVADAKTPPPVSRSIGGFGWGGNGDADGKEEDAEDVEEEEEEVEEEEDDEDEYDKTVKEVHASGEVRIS

[4] = target: T4, SRK2A-VenusN (Arabidopsis thaliana) (UniProt P43291); experiment: split reporter; BiFC in N. benthamiana leaves; VenusN and SCFP3AC fusions; leaves treated with water or 500 mM mannitol for 5 h; confocal microscopy
T4 sequence: T3 sequence

[5] = target: T5, SRK2G-VenusN (Arabidopsis thaliana) (UniProt P43292); experiment: as above
T5 sequence: T2 sequence

[6] = target: T6, SRK2G-cLUC (Arabidopsis thaliana) (UniProt P43292); experiment: split reporter; split-luciferase complementation in infiltrated N. benthamiana leaves; nLUC and cLUC fusions transiently expressed; luciferin infiltrated, luminescence imaged
T6 sequence: T2 sequence

[7] = target: T7, SRK2A-cLUC (Arabidopsis thaliana) (UniProt P43291); experiment: as above
T7 sequence: T3 sequence

binding [1]: no binding
binding [2]: binds
binding [3]: binds
Substance: RAF18-GFP (Arabidopsis thaliana)

binding [4]: binds
binding [5]: binds
Substance: RAF18-SCFP3AC (Arabidopsis thaliana)

binding [6]: binds
binding [7]: binds
Substance: RAF18-nLUC (Arabidopsis thaliana)
